B1: Ab1 (antibody, human IgG1, V domains shown)
VH: EVQLVQSGAEVKKPGATVKISCKVSGYTFITYWISWVQQAPGKGLEWMGAIDPSDSDARYSPSFQGRVTITADTSTDTAYMELSSLRSEDTAVYYCAKSDPGYSGYSLLYGFDSWGQGTLVTVSS
VL: DIVMTQTPLSSPVTLGQPASISCRSSQSLVQRNGNTYLSWLQQRPGQPPRLLIYQVSNRYSGVPDRFSGSGAGTDFTLKISRVEAEDVGVYYCGQGAHLPLTFGQGTKVEIK
notes: Lead antibody; also called Abl
B2: Ab5 (antibody, human IgG1, V domains shown)
VH: EVQLVQSGAEVKKPGATVKISCKVSGYTFITYWISWVQQAPGKGLEWMGAIDPSDSDARYSPSFQGRVTITADTSTDTAYMELSSLRSEDTAVYYCAKSDPGYSGYSLLYGFDSWGQGTLVTVSS
VL: DVVMTQSPLSLPVTLGQPASISCRSSQSLVQRNGNTYLSWYQQRPGQPPRLLIYQVSNRYSGVPDRFSGSGSGTDFTLKISRVEAEDVGVYYCGQGAHLPLTFGQGTKVEIK
B3: Ab7 (antibody, human IgG1, V domains shown)
VH: EVQLVQSGAEVKKPGATVKISCKVSGYTFITYWISWVQQAPGKGLEWMGAIDPSDSDARYSPSFQGRVTITADTSTDTAYMELSSLRSEDTAVYYCAKSDPGYSGYSLLYGFDSWGQGTLVTVSS
VL: DIVMTQSPLSLPVTLGQPASISCRSSQSLVQRNGNTYLSWFQQRPGQSPRLLIYQVSNRYSGVPDRFSGSGSGTDFTLKISRVEAEDVGVYYCGQGAHLPLTFGQGTKVEIK
B4: Ab2 (antibody, human IgG1, V domains shown)
VH: EVQLVQSGAEVKKPGATVKISCKVSGYTFITYWISWVQQAPGKGLEWMGAIDPSDSDARYSPSFQGRVTITADTSTDTAYMELSSLRSEDTAVYYCAKSDPGYSGYSLLYGFDSWGQGTLVTVSS
VL: DIVMTQTPLSSPVTLGQPASISCRSSQSLVQRNGNTYLSWYQQRPGQPPRLLIYQVSNRYSGVPDRFSGSGAGTDFTLKISRVEAEDVGVYYCGQGAHLPLTFGQGTKVEIK
B5: Ab17 (antibody, human IgG1, V domains shown)
VH: EVQLVQSGAEVKKPGATVKISCKVSGYSFITYWISWVQQAPGKGLEWMGAIDPSDSDARYSPSFQGRVTITADTSTDTAYMELSSLRSEDTAVYYCAKSDPGYSGYSLLYGFDSWGQGTLVTVSS
VL: DIVMTQSPLSLPVTLGQPASISCRSSQSLVQRNGNTYLSWFQQRPGQSPRLLIYQVSNRYSGVPDRFSGSGSGTDFTLKISRVEAEDVGVYYCGQGAHLPLTFGQGTKVEIK
B6: Ab3 (antibody, human IgG1, V domains shown)
VH: EVQLVQSGAEVKKPGATVKISCKVSGYTFITYWISWVQQAPGKGLEWMGAIDPSDSDARYSPSFQGRVTITADTSTDTAYMELSSLRSEDTAVYYCAKSDPGYSGYSLLYGFDSWGQGTLVTVSS
VL: DVVMTQSPLSLPVTLGQPASISCRSSQSLVQRNGNTYLSWFQQRPGQSPRLLIYQVSNRYSGVPDRFSGSGSGTDFTLKISRVEAEDVGVYYCGQGAHLPLTFGQGTKVEIK
B7: Ab13 (antibody, human IgG1, V domains shown)
VH: EVQLVQSGAEVKKPGATVKISCKVSGYSFITYWISWVQQAPGKGLEWMGAIDPSDSDARYSPSFQGRVTITADTSTDTAYMELSSLRSEDTAVYYCAKSDPGYSGYSLLYGFDSWGQGTLVTVSS
VL: DVVMTQSPLSLPVTLGQPASISCRSSQSLVQRNGNTYLSWFQQRPGQSPRLLIYQVSNRYSGVPDRFSGSGSGTDFTLKISRVEAEDVGVYYCGQGAHLPLTFGQGTKVEIK
B8: Ab10 (antibody, human IgG1, V domains shown)
VH: EVQLVQSGAEVKKPGATVKISCKVSGYTFITYWISWVQQAPGKGLEWMGAIDPSDSDARYSPSFQGRVTITADTSTDTAYMELSSLRSEDTAVYYCAKSDPGYSGYSLLYGFDSWGQGTLVTVSS
VL: DIVMTQSPLSLPVTLGQPASISCRSSQSLVQRNGNTYLSWFQQRPGQPPRLLIYQVSNRYSGVPDRFSGSGSGTDFTLKISRVEAEDVGVYYCGQGAHLPLTFGQGTKVEIK
B9: Ab12 (antibody, human IgG1, V domains shown)
VH: EVQLVQSGAEVKKPGATVKISCKVSGYSFITYWISWVQQAPGKGLEWMGAIDPSDSDARYSPSFQGRVTITADTSTDTAYMELSSLRSEDTAVYYCAKSDPGYSGYSLLYGFDSWGQGTLVTVSS
VL: DIVMTQTPLSSPVTLGQPASISCRSSQSLVQRNGNTYLSWYQQRPGQPPRLLIYQVSNRYSGVPDRFSGSGAGTDFTLKISRVEAEDVGVYYCGQGAHLPLTFGQGTKVEIK
B10: Ab18 (antibody, human IgG1, V domains shown)
VH: EVQLVQSGAEVKKPGATVKISCKVSGYSFITYWISWVQQAPGKGLEWMGAIDPSDSDARYSPSFQGRVTITADTSTDTAYMELSSLRSEDTAVYYCAKSDPGYSGYSLLYGFDSWGQGTLVTVSS
VL: DIVMTQSPLSLPVTLGQPASISCRSSQSLVQRNGNTYLSWYQQRPGQSPRLLIYQVSNRYSGVPDRFSGSGSGTDFTLKISRVEAEDVGVYYCGQGAHLPLTFGQGTKVEIK
B11: Ab11 (antibody, human IgG1, V domains shown)
VH: EVQLVQSGAEVKKPGATVKISCKVSGYSFITYWISWVQQAPGKGLEWMGAIDPSDSDARYSPSFQGRVTITADTSTDTAYMELSSLRSEDTAVYYCAKSDPGYSGYSLLYGFDSWGQGTLVTVSS
VL: DIVMTQTPLSSPVTLGQPASISCRSSQSLVQRNGNTYLSWLQQRPGQPPRLLIYQVSNRYSGVPDRFSGSGAGTDFTLKISRVEAEDVGVYYCGQGAHLPLTFGQGTKVEIK
B12: Ab9 (antibody, human IgG1, V domains shown)
VH: EVQLVQSGAEVKKPGATVKISCKVSGYTFITYWISWVQQAPGKGLEWMGAIDPSDSDARYSPSFQGRVTITADTSTDTAYMELSSLRSEDTAVYYCAKSDPGYSGYSLLYGFDSWGQGTLVTVSS
VL: DIVMTQSPLSLPVTLGQPASISCRSSQSLVQRNGNTYLSWYQQRPGQPPRLLIYQVSNRYSGVPDRFSGSGSGTDFTLKISRVEAEDVGVYYCGQGAHLPLTFGQGTKVEIK
B13: Ab15 (antibody, human IgG1, V domains shown)
VH: EVQLVQSGAEVKKPGATVKISCKVSGYSFITYWISWVQQAPGKGLEWMGAIDPSDSDARYSPSFQGRVTITADTSTDTAYMELSSLRSEDTAVYYCAKSDPGYSGYSLLYGFDSWGQGTLVTVSS
VL: DVVMTQSPLSLPVTLGQPASISCRSSQSLVQRNGNTYLSWYQQRPGQPPRLLIYQVSNRYSGVPDRFSGSGSGTDFTLKISRVEAEDVGVYYCGQGAHLPLTFGQGTKVEIK
B14: Ab14 (antibody, human IgG1, V domains shown)
VH: EVQLVQSGAEVKKPGATVKISCKVSGYSFITYWISWVQQAPGKGLEWMGAIDPSDSDARYSPSFQGRVTITADTSTDTAYMELSSLRSEDTAVYYCAKSDPGYSGYSLLYGFDSWGQGTLVTVSS
VL: DVVMTQSPLSLPVTLGQPASISCRSSQSLVQRNGNTYLSWYQQRPGQSPRLLIYQVSNRYSGVPDRFSGSGSGTDFTLKISRVEAEDVGVYYCGQGAHLPLTFGQGTKVEIK
B15: Ab8 (antibody, human IgG1, V domains shown)
VH: EVQLVQSGAEVKKPGATVKISCKVSGYTFITYWISWVQQAPGKGLEWMGAIDPSDSDARYSPSFQGRVTITADTSTDTAYMELSSLRSEDTAVYYCAKSDPGYSGYSLLYGFDSWGQGTLVTVSS
VL: DIVMTQSPLSLPVTLGQPASISCRSSQSLVQRNGNTYLSWYQQRPGQSPRLLIYQVSNRYSGVPDRFSGSGSGTDFTLKISRVEAEDVGVYYCGQGAHLPLTFGQGTKVEIK

The chains behind the UniProt entries cited, without tags or fusion partners. Where a name states a change or a piece, a line headed by the entry shows the natural chain unless it says otherwise.
UniProt P01138: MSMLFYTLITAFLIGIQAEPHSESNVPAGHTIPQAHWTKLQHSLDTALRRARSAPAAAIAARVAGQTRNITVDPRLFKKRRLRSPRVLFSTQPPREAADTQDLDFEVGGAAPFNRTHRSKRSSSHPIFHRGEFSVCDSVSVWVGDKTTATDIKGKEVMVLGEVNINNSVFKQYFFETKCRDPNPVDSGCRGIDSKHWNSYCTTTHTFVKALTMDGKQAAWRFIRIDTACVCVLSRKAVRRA

These are yes or no findings as the source states them, for the method shown. Some results given as binding are weak or reduced against the parent protein; the word gives no strength.

The test concerns the target recombinantly produced human-NGF (human, UniProt P01138 122-241, limits assumed). As to the kind of experiment: NGF binding ELISA.
Consider B1, for which the binding result is “binds”.
Then B2, with “binds”.
To B3 belongs “binds”; to B4, “binds”.
To B5 belongs “binds”; to B6, “binds”.
For B7, the binding result is given as “binds”.
Then B8, with “binds”; and B9, with “binds”.
To B10 belongs “binds”.
For B11, the binding result is on record as “binds”.
Then B12, with “binds”; and B13, with “binds”.
Then B14, with “binds”.
As to B15, the binding entry is reported as “binds”.

The values are drawn from patent US20230220057A1 (STAIDSON BEIJING BIOPHARMACEUTICALS, published 2023).
